# The other results are listed elsewhere or left out. Further columns of the screen follow, without active or inactive calls. Most of these compounds were active or inconclusive in the main read-out, so they are no random draw. Words in brackets tell the shape of the fitted curve; partial curves, single points and poor fits give uncertain potencies.
# Experiment: Cell signaling CRE-BLA (Fsk stim)
# Conditions: CHO CRE-bla reporter (cAMP response element driving beta-lactamase), forskolin EC10, beta-lactamase ratio; measured here: 460 nm blue channel
# Procedure, shortened: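 qHTS titration format; CRE-bla CHO reporter; stimulus EC10 NKH 477, a water-soluble forskolin. Read: CCF4 460/530 nm ratio. Potency expressed as AC50 for activators or inhibitors.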
row,SMILES,AC50
1,COc1ccc(CNC(=O)C(C)N(Cc2ccco2)C(=O)c2snc(C(N)=O)c2N)cc1 (centres undefined),"1 µM [falling, partial curve]"
2,Cc1noc(C)c1CSc1nc2ccccc2c(=O)n1-c1ccccc1,"10 µM [rising, partial curve]"
3,COc1ccc(C(=O)c2oc3ccc(OC)cc3c2N)cc1,"12.6 µM [rising, partial curve]"
4,CCOc1cc(-c2nn3cnnc3s2)cc(OCC)c1OCC,"0.1 µM [rising, full curve]"
5,COc1cccc(C2=CC(c3cccc(OC)c3OC)n3nnnc3N2)c1 (centres undefined),"12.6 µM [rising, partial curve]"
6,O=c1cnc2cnc(N3CCNCC3)nc2n1Cc1cccs1,"12.6 µM [rising, single point]"
7,Cc1cccn2c(=O)c3cc(C(=O)Nc4ccc(N(C)C)cc4)n(C)c3nc12,"0.126 µM [rising, full curve]"
8,CCNc1nc(SCC(=O)OC)nc(N2CCOCC2)n1,"5.01 µM [rising, partial curve]"
9,C=CCn1c(COc2ccccc2F)nnc1SCC(=O)NC(=O)NCc1ccco1,"3.16 µM [falling, full curve]"
10,Cc1c(C(=O)OC2CCCC2)[nH]c2c1C(=O)CC(c1ccco1)C2 (centres undefined),"0.631 µM [rising, full curve]"
11,COCCNC(=O)c1cc(-c2ccccc2OC)on1,"10 µM [rising, single point]"
12,O=S(=O)(c1cccc(-c2nnc(SCc3ccc(Cl)cc3)o2)c1)N1CCCCC1,"0.0794 µM [falling, partial curve, poor fit]"
13,Cc1noc(C)c1S(=O)(=O)N1CCC(C(=O)NCCC2=CCCCC2)CC1,"3.16 µM [rising, single point]"
14,COc1ccc(CNC(=O)c2cnc3scc(C)n3c2=O)cc1,"10 µM [rising, partial curve]"
15,COc1ccc(Br)cc1C1SCCN1S(C)(=O)=O (centres undefined),"0.2 µM [rising, single point]"
16,O=C(NC1CCCC1)c1cnn2c(C(F)(F)F)cc(-c3ccco3)nc12,"5.01 µM [rising, partial curve]"
17,CN(C)c1nc(-c2ccccc2)c2cnn(Cc3ccccc3)c2n1,"12.6 µM [rising, partial curve]"
18,CN(C(=O)COC(=O)C1CCN(S(=O)(=O)c2cccs2)CC1)C1CCS(=O)(=O)C1 (centres undefined),"0.316 µM [falling, full curve]"
19,N#Cc1c(SCC(=O)Nc2nccs2)nc2c(c1-c1ccco1)CCCC2,"5.01 µM [rising, partial curve]"
20,CCS(=O)(=O)N1CCC(C(=O)N2CCN(c3ccccc3)CC2)CC1,"25.1 µM [falling, single point]"
21,O=C(OCn1nnc2ccccc2c1=O)c1cn(-c2ccccc2)nc1-c1cccnc1,"6.31 µM [rising, partial curve]"
22,Cc1cc(Cl)nc2ccc(Cc3ccc4nc(Cl)cc(C)c4c3)cc12,"2.51 µM [rising, partial curve]"
23,COc1ccc(N2CCN(c3oc(-c4ccco4)nc3C#N)CC2)cc1,"10 µM [rising, partial curve]"

row,SMILES,AC50
1,CCC(C)[C@H](NC(=O)NCc1cccc(OC)c1)C(=O)O (some centres undefined),"1.58 µM [falling, full curve, poor fit]"
2,Nc1nc(Cl)nc2c1ncn2[C@@H]1O[C@@H](CO)[C@@H](O)[C@H]1O,"20 µM [rising, partial curve, poor fit]"
3,CCNC(=O)N1CCNC(=O)C1CC(=O)OC (centres undefined),"0.00398 µM [falling, full curve]"
4,COc1cccc(C2=NOC(C(=O)NCc3ccccc3)C2)c1 (centres undefined),"25.1 µM [rising, single point]"
5,CCC(C)Sc1nc2c(c(=O)[nH]c(=O)n2C)n1CCc1ccccc1 (centres undefined),"3.98 µM [rising, partial curve]"
6,Cc1c(CN2CCC(C)CC2)c(=O)n(-c2ccccc2)n1C,"0.794 µM [falling, full curve]"
7,Cc1ccccc1-c1nnc(SCC(=O)Nc2ccc3c(c2)OCCO3)n1N,"2.51 µM [falling, full curve]"
8,Cc1onc(-c2ccccc2Cl)c1C(=O)Nc1sc2c(c1C#N)CCC2,"10 µM [rising, single point]"
9,CCC(=O)Oc1ccc2c(C)cc(=O)oc2c1C,"25.1 µM [rising, single point]"
10,CCOc1ccc(C2Oc3nc(SC)nnc3-c3ccccc3N2C(C)=O)cc1OC (centres undefined),"0.794 µM [rising, full curve, poor fit]"
11,COc1ccc(Nc2ncnc3c2oc2ccccc23)cc1,"12.6 µM [rising, partial curve]"
12,O=c1ccc2c(o1)/C(=C/C=C(Cl)Cl)CCC2,"1.58 µM [rising, partial curve]"
13,FC(F)(F)c1cc(NC(=S)N2c3ccccc3-n3cccc3[C@H]2c2cccnc2)cc(C(F)(F)F)c1,"2 µM [rising, partial curve]"
14,Cn1c(=O)c2cc(S(=O)(=O)NCCC(=O)NCCC3=CCCCC3)ccc2n(C)c1=O,"10 µM [rising, partial curve]"
15,O=c1c2ccccc2nc2ccc(NCc3ccco3)nn12,"10 µM [falling, partial curve]"
16,Cn1c(-c2ccc(CN3CCCCC3)o2)nc2ccccc21,"12.6 µM [rising, partial curve]"
17,Cc1nnc2sc(-c3cccc4ccccc34)nn12,"25.1 µM [rising, single point]"
18,CCOC(=O)c1cccc(NC(=O)N[C@@H](C)C(=O)OC)c1,"0.0126 µM [falling, full curve, poor fit]"
19,Cc1cc(=O)oc2c1ccc1oc(/C(=N/O)c3ccccc3)c(C)c12,"20 µM [falling, single point]"
20,Cc1ccc(S(=O)(=O)N(CC(=O)N2CCCC2)C2CCCCC2)cc1,"0.00398 µM [falling, full curve, poor fit]"
21,CC(C)C(NC(=O)OCc1ccccc1)C(=O)OCC(=O)NCc1ccco1 (centres undefined),"7.94 µM [falling, partial curve, poor fit]"
22,COc1ccc(C(=O)n2nc(-c3ccccc3)nc2N)cc1OC,"6.31 µM [rising, partial curve]"
23,CCC(C)[C@H](NC(=O)NCc1cccs1)C(=O)OC (some centres undefined),"10 µM [falling, partial curve]"

# Laid out differently: results already given
row | SMILES | AC50
20 | CCS(=O)(=O)N1CCC(C(=O)N2CCN(c3ccccc3)CC2)CC1 | 25.1 µM [falling, single point]
21 | O=C(OCn1nnc2ccccc2c1=O)c1cn(-c2ccccc2)nc1-c1cccnc1 | 6.31 µM [rising, partial curve]
22 | Cc1cc(Cl)nc2ccc(Cc3ccc4nc(Cl)cc(C)c4c3)cc12 | 2.51 µM [rising, partial curve]
23 | COc1ccc(N2CCN(c3oc(-c4ccco4)nc3C#N)CC2)cc1 | 10 µM [rising, partial curve]
1 | CCC(C)[C@H](NC(=O)NCc1cccc(OC)c1)C(=O)O (some centres undefined) | 1.58 µM [falling, full curve, poor fit]
2 | Nc1nc(Cl)nc2c1ncn2[C@@H]1O[C@@H](CO)[C@@H](O)[C@H]1O | 20 µM [rising, partial curve, poor fit]
3 | CCNC(=O)N1CCNC(=O)C1CC(=O)OC (centres undefined) | 0.00398 µM [falling, full curve]
4 | COc1cccc(C2=NOC(C(=O)NCc3ccccc3)C2)c1 (centres undefined) | 25.1 µM [rising, single point]
5 | CCC(C)Sc1nc2c(c(=O)[nH]c(=O)n2C)n1CCc1ccccc1 (centres undefined) | 3.98 µM [rising, partial curve]
6 | Cc1c(CN2CCC(C)CC2)c(=O)n(-c2ccccc2)n1C | 0.794 µM [falling, full curve]
7 | Cc1ccccc1-c1nnc(SCC(=O)Nc2ccc3c(c2)OCCO3)n1N | 2.51 µM [falling, full curve]
8 | Cc1onc(-c2ccccc2Cl)c1C(=O)Nc1sc2c(c1C#N)CCC2 | 10 µM [rising, single point]
9 | CCC(=O)Oc1ccc2c(C)cc(=O)oc2c1C | 25.1 µM [rising, single point]
10 | CCOc1ccc(C2Oc3nc(SC)nnc3-c3ccccc3N2C(C)=O)cc1OC (centres undefined) | 0.794 µM [rising, full curve, poor fit]
11 | COc1ccc(Nc2ncnc3c2oc2ccccc23)cc1 | 12.6 µM [rising, partial curve]
12 | O=c1ccc2c(o1)/C(=C/C=C(Cl)Cl)CCC2 | 1.58 µM [rising, partial curve]

# Further records.

row,SMILES,AC50
1,O=C(O)C1CCCCC1C(=O)Nc1ccccc1Nc1ccccc1 (centres undefined),"10 µM [falling, partial curve]"
2,c1csc(CNc2ccnc(-c3ccc4c(c3)OCO4)n2)c1,"10 µM [rising, single point]"
3,C=CCn1c(=O)c2c(C)c(C)sc2n2c(Nc3ccccc3)nnc12,"3.16 µM [rising, full curve]"
4,CCOc1ccc2nc3ccc4[nH]onc4c3c2c1,"12.6 µM [rising, partial curve]"
5,COc1ccc(-c2cn3c4c(sc3n2)CCCC4)cc1,"25.1 µM [rising, single point]"
6,C=CCn1c(=N)c(C(=O)NCCCOC)cc2c(=O)n3cccc(C)c3nc21,"12.6 µM [rising, partial curve]"
7,Nc1nc2ccc(OC(F)(F)F)cc2s1,"12.6 µM [rising, partial curve]"
8,COc1cccc(C(=O)/C=C/Nc2cc(C)ccc2O)c1,"3.98 µM [rising, single point]"
9,COc1cc2c(cc1OC)C(c1cccs1)CC(=O)N2 (centres undefined),"12.6 µM [rising, single point]"
10,CCn1cc(C(=O)Nc2ccccc2C(=O)OC)c(=O)c2ccc(C)nc21,"2 µM [rising, partial curve]"
11,COc1ccc(N2C(=O)CC(N3CCCC4CCCCC43)C2=O)cc1 (centres undefined),"0.0126 µM [falling, full curve]"
12,N=c1c(S(=O)(=O)c2ccccc2)cc2c(=O)n3ccccc3nc2n1Cc1ccco1,"10 µM [rising, partial curve]"
13,O=C(CSc1nc2cc(Cl)ccc2s1)NC(=O)NCc1ccco1,"0.126 µM [falling, full curve]"
14,CCOC(=O)Cn1c(=O)c2c(nc(N3CCCCC3)n2C)n(C)c1=O,"12.6 µM [rising, single point]"
15,COc1ccc2nc(SCC(N)=O)cc(C)c2c1,"25.1 µM [rising, single point]"
16,COc1cc2cc(C)c3nnc(SCC(N)=O)n3c2cc1OC,"10 µM [rising, partial curve]"
17,COc1cc(O)c2c(O)c3c(c4c2c1[C@@]1(C4)C(C)=CCCC1(C)C)[C@H](O)[C@@]1(O)CC(=O)C(C(N)=O)=C(O)[C@]1(O)C3=O,"1.58 µM [rising, partial curve]"
18,N#CC1=C(N)SC(N)=C(C#N)C1Cc1ccccc1,"12.6 µM [falling, partial curve]"
19,O=C(Cn1c(=O)n(-c2ccc(F)cc2)c(=O)c2sccc21)N1CCCC1,"0.0251 µM [falling, full curve, poor fit]"
20,COc1ccc(OC)c2c(C)cc(NCCN3CCOCC3)nc12,"12.6 µM [rising, single point]"
21,O=C(NC1CCCCC1)N(Cc1cc2cc3c(cc2[nH]c1=O)OCCO3)CC1CCCO1 (centres undefined),"12.6 µM [rising, single point]"
22,COCCn1c(SCc2csc(-c3ccccc3)n2)nc2ccccc21,"2 µM [rising, full curve, poor fit]"
23,CCCc1nnc(SCC(=O)N2CCCC2)n1CC1CCCO1 (centres undefined),"2.51 µM [falling, full curve, poor fit]"

# From PubChem BioAssay AID662 (National Center for Advancing Translational Sciences (NCATS), 2007)
